B1: SLPI: Secretory Leukoprotease Inhibitor protein added to cultured skin equivalent (protein, UniProt P03973 26-132, looked up)
Antileukoproteinase: SGKSFKAGVCPPKKSAQCLRYKKPECQSDWQCPGKKRCCPDTCGIKCLDPVDTPNPTRRKPGKCPVTYGQCLMLNPPNFCEMDGQCKRDLKCCMGMCGKSCVSPVKA
B2: SCCE: recombinant Stratum Corneum Chymotryptic Enzyme, activated with agarose-bound trypsin (protein, UniProt P49862 30-253, looked up)
Kallikrein-7: IIDGAPCARGSHPWQVALLSGNQLHCGGVLVNERWVLTAAHCKMNEYTVHLGSDTLGDRRAQRIKASKSFRHPGYSTQTHVNDLMLVKLNSQARLSSMVKKVRLPSRCEPPGTTCTVSGWGTTTSPDVTFPSDLMCVDVKLISPQDCTKVYKDLLENSMLCAGIPDSKKNACNGDSGGPLVCRGTLQGLVSWGTFPCGQPNDPGVYTQVCKFTKWINDTMKKHR
modifications: activated with trypsin

Tests used:
[1] = tested on: psoriatic lesional and non-lesional skin; test: Affymetrix oligonucleotide array gene expression in psoriasis, involved and uninvolved skin compared to normal skin; design: species or system human; key: ++: normally expressed; +++: strongly expressed; ++++: highly expressed; +down-regulation; conditions: protease inhibitor genes
[2] = tested on: eczema lesional and non-lesional skin; test: Affymetrix oligonucleotide array gene expression in eczema, involved and uninvolved skin compared to normal skin; design: species or system human; key: ++: normally expressed; +++: strongly expressed; ++++: highly expressed; +down-regulation; conditions: for Expression level Involved: eczema lesional skin (involved); for Expression level Uninvolved: eczema non-lesional skin (uninvolved)

Molecule	Expression level Involved ([1]; psoriatic lesional skin (involved))	Expression level Uninvolved ([1]; psoriatic non-lesional skin (uninvolved))	Expression level Involved ([2]; protease inhibitor genes)	Expression level Uninvolved ([2]; protease inhibitor genes)	Expression level Involved ([2]; protease genes)	Expression level Uninvolved ([2]; protease genes)
B1	++++	+++	+	++		
B2					++++	+++
